Data as given in patent publication US20240391928A1, “COMPOSITIONS FOR THE TREATMENT OF FOOD AND CHEMICAL ADDICTION AND METHODS OF MAKING AND USING SAME” (Duke University, priority 2021, published 2024).
Some results were stated once for a whole list of compounds, not compound by compound.

Protein sequences, listed by entry. Tags and fused reporters are not part of them.
UniProt Q92847, whole entry: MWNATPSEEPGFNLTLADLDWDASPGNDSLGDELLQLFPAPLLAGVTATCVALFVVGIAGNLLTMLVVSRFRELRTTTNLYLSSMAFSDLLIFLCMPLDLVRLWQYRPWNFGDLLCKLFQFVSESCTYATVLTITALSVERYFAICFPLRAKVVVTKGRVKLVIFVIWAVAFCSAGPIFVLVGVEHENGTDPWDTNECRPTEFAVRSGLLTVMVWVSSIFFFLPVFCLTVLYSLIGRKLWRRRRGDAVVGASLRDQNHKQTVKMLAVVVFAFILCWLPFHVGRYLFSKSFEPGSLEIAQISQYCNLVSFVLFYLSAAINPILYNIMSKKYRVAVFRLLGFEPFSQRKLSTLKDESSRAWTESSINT

Target: hGHSR1a^WT (Homo sapiens, UniProt Q92847)
Test: Gαq-dependent intracellular Ca2+ mobilization (iCa2+, miAeq)
Assay type: cell-based
Design: HEK293/T (transient); HEK293S Gαq knockout (transient, NanoBiT Gαq)
Description: Gαq-Dependent Intracellular Ca^2+ Mobilization. […] Cells were split into and seeded into 10 cm dishes without antibiotic selection and grown to confluency overnight. The next morning, cells were serum starved in 10 mL of clear opti-MEM (supplemented with L-glutamine and HEPES; Gibco, Waltham, MA) for 3-4 hours in a 37° C. incubator with 5% CO2. Then, 25 μL of coelenterazine H (NanoLight Technology, Pinetop, AZ) was added to each 10 mL dish and incubated for another 1-2 hours. […] Luminescence was read without delay and for 10 seconds per well. […] The max ligand-induced response (Ca^2+ mobilization: net-miAeq) over 10 seconds was normalized by dividing the ligand-induced luminescence counts (L-miAeq) by the ligand-induced luminescence counts (L-MiAeq) plus the luminescence measured upon cell lysis (Lysis-miAeq). […]
For experiments with WT and Gt KO HEK293/S cells, […] of hGHSR1a^WT, 10 μg of miAEQ, and 2.5 μg of pcDNA3.1 was transiently transfected into 10 cm dishes and incubated overnight. […] To control for any possible kinetic differences in genetically modified cell lines or GHSR1a variants, the average ligand-induced response over 10 seconds was calculated, then normalized by dividing the L-miAeq by the L-miAeq plus the Lysis-miAeq and normalized to the appropriate control/reference condition.

For `COc1ccc(C(=O)c2c(C(=O)NCCCN(C)C)oc3ccc(Cl)cc3c2=O)cc1OC` [Example N8279, 6-Chloro-3-(3,4-dimethoxybenzoyl)-N-(3-(dimethylamino)propyl)-4-oxo-4H-chromene-2-carboxamide], the “Hill slope (h), iCa2+” value was greater than 1.
